Experimental data as given in US4736051A, “Process for the preparation of an alkali metal salt of a diester phosphoric acid” (Kao Corporation, priority 1985, dated 1988).

Tests used:
[1] = Photopolymerization of Compound (XIV)/water 50/50 with benzoin isobutyl ether; assay type: physicochemical; details: light irradiation 2 hours
[2] = Polymerization in aqueous solution with K2S2O8; assay type: physicochemical

Structure (SMILES): C=C(C)C(=O)OCC(O)COP(=O)([O-])OCCCCCCCCCCCC.[Na+] (centres unmarked) [Compound (XIV), sodium dodecyl 2-hydroxy-3-methacryloyloxypropyl phosphate]
- product of photopolymerization ([1]; 50/50 with water, 2% benzoin isobutyl ether, nitrogen): colorless transparent rubber-like material
- product of photopolymerization, sandwiched between slide glasses ([1]; thin sample): colorless transparent film-like material
- product of polymerization in aqueous solution ([2]; about 10% aqueous solution, 1% K2S2O8, 60° to 70° C., 4 to 5 hours): colorless, transparent, highly viscous aqueous solution
- gelling of polymer product ([2]; in water or methanol): capable of being gelled in water or methanol
- film formation of polymer product on slide glass ([2]; placed on slide glass and allowed to stand): colorless transparent film-like material
